Paper PMC11964227, “Critical functions and key interactions mediated by the RNase E scaffolding domain in Pseudomonas aeruginosa” (PLOS Genetics, 2025)
Where two headings read alike, the source gives them in different places. Results are given in words; binding and its absence hold for the method and conditions named. In cells and extracts the contact can be indirect. Here binding means that the protein was enriched with, or labelled near, the bait; the list need not be complete. For some of these results: No binding means not detected with the bait.

Sequences of proteins named here, by UniProt entry; tags and fusion partners are left off. A change or cut given only in a name is not applied to a line headed by its entry. Residues count along the entry.
UniProt Q9HZM8: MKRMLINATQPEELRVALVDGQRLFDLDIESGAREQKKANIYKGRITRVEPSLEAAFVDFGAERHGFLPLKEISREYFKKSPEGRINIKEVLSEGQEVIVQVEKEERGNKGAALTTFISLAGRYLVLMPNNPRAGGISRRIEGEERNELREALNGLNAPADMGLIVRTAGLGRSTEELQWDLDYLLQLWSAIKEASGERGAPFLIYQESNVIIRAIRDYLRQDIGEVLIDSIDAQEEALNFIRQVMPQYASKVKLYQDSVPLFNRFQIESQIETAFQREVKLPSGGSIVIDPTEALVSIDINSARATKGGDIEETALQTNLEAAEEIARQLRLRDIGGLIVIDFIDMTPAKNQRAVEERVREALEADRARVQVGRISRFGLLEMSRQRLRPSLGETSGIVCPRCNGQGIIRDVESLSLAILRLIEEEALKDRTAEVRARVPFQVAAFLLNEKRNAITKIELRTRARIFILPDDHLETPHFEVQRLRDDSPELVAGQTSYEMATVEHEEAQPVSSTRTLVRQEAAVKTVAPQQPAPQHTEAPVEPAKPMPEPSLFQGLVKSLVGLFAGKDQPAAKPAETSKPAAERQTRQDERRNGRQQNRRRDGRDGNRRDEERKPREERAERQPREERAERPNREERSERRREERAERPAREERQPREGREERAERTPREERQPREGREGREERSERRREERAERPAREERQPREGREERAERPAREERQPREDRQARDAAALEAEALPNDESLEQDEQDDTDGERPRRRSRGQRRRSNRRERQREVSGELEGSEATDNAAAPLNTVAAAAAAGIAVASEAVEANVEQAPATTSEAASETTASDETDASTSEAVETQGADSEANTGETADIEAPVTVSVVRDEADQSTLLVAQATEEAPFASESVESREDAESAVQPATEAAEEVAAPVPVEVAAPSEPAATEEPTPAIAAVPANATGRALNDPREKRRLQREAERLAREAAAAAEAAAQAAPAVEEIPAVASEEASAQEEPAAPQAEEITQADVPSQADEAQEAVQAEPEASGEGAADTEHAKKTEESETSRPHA
RNase E^1-529-Strep: residues 1-529 of Q9HZM8
UniProt Q9HWC9: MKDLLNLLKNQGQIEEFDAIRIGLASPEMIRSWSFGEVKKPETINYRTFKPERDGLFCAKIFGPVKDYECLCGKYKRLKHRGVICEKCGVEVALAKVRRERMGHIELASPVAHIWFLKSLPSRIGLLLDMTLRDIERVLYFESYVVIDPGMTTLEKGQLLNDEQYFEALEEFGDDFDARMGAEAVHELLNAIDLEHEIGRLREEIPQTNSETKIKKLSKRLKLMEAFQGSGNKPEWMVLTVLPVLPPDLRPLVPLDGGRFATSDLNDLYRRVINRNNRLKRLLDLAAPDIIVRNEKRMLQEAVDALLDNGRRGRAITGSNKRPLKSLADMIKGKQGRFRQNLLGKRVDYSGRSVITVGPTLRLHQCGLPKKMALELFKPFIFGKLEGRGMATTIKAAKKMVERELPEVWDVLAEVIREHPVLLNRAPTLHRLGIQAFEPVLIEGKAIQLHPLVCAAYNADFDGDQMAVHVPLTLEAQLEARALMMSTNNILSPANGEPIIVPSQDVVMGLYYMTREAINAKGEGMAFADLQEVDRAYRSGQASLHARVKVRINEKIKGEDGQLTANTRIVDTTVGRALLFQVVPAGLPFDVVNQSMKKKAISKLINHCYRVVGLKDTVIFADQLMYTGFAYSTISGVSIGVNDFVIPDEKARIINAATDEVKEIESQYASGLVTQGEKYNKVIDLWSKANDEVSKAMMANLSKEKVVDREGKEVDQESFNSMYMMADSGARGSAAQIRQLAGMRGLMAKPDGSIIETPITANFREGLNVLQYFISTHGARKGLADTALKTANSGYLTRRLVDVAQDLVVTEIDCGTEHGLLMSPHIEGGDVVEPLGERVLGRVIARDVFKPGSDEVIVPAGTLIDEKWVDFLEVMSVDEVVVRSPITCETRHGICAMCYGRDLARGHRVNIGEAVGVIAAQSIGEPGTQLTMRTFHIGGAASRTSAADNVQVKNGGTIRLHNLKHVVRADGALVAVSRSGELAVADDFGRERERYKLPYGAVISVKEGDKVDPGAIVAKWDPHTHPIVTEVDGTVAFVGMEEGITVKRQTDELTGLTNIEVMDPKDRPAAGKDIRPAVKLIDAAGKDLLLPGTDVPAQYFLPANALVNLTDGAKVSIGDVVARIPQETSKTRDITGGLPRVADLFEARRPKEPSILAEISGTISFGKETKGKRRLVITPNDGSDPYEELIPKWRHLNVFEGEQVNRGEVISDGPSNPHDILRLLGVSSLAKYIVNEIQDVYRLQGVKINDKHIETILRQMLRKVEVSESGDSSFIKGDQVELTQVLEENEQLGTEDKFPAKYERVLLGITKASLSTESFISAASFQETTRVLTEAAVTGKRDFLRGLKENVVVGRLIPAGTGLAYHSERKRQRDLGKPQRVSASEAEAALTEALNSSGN
UniProt Q51561: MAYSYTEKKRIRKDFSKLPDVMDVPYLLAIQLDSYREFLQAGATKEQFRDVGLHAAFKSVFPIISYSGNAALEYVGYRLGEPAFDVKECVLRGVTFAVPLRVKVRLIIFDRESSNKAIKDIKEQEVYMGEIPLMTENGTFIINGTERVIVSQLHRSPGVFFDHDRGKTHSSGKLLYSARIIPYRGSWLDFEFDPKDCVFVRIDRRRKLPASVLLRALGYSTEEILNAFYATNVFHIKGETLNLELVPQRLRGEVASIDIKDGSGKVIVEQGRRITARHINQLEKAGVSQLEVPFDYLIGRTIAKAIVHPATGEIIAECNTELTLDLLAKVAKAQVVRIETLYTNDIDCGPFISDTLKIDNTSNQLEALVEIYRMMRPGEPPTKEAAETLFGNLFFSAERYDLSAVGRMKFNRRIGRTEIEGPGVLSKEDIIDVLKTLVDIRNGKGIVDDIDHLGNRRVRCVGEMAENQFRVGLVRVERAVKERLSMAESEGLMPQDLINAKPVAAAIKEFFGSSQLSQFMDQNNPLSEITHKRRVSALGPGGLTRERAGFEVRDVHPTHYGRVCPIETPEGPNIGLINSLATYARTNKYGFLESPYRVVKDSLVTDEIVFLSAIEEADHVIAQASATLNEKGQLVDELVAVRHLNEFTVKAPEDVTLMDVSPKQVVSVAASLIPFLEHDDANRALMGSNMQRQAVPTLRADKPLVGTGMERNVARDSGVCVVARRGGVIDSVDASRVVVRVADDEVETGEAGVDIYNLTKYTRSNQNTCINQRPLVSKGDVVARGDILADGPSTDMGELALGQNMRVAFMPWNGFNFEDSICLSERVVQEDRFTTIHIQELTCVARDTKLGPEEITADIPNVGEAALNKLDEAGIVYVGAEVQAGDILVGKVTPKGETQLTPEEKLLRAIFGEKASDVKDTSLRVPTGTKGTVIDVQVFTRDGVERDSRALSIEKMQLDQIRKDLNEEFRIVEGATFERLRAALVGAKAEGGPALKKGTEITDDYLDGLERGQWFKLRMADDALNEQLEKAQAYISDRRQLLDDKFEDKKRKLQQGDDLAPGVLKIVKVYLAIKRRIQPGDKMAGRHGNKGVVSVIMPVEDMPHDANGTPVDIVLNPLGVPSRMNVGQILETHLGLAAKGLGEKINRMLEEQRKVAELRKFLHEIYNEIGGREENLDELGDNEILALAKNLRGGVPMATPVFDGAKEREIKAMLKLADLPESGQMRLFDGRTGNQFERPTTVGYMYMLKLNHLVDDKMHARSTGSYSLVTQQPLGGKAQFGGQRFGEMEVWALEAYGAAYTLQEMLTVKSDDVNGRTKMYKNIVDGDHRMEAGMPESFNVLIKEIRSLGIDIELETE
UniProt Q9HZE0: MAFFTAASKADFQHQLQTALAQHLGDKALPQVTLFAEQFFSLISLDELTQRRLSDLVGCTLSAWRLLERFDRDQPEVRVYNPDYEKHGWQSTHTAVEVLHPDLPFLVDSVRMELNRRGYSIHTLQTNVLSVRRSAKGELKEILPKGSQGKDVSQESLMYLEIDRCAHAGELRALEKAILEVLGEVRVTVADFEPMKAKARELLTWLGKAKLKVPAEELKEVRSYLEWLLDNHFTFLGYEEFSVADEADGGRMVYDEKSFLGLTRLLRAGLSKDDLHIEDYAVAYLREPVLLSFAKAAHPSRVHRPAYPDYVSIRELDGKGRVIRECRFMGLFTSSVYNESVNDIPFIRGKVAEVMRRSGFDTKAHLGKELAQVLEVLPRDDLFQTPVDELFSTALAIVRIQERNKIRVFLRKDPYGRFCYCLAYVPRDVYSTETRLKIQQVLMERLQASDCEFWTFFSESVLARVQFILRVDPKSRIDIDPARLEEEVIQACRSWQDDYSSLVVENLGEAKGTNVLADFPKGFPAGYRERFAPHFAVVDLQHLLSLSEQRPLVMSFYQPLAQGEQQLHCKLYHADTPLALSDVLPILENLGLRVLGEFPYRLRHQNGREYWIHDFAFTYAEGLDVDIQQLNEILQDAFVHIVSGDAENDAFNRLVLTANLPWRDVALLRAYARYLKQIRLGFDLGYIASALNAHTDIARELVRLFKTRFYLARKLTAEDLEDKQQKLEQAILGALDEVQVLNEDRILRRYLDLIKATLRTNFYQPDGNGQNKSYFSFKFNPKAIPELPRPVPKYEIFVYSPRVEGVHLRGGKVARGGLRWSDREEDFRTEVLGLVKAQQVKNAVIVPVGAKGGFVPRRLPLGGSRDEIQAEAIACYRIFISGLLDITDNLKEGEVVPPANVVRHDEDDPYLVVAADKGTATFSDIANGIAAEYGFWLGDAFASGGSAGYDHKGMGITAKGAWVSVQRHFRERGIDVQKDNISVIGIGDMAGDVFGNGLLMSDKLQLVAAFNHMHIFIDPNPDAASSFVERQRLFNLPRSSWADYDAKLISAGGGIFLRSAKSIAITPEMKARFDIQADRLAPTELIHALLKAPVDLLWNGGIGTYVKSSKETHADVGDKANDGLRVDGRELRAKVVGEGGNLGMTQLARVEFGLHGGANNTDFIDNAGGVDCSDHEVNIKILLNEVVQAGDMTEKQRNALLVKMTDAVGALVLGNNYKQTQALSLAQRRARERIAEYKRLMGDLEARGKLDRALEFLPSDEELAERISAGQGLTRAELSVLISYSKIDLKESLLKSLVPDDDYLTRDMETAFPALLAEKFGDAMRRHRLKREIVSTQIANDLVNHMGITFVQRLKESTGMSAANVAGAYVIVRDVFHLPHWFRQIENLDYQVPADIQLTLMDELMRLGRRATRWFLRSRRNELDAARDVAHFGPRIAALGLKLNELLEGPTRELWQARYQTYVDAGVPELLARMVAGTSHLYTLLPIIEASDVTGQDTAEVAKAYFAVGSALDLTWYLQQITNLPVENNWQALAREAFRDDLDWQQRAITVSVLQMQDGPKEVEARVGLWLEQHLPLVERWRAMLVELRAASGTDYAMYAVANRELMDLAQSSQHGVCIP
UniProt Q9I689: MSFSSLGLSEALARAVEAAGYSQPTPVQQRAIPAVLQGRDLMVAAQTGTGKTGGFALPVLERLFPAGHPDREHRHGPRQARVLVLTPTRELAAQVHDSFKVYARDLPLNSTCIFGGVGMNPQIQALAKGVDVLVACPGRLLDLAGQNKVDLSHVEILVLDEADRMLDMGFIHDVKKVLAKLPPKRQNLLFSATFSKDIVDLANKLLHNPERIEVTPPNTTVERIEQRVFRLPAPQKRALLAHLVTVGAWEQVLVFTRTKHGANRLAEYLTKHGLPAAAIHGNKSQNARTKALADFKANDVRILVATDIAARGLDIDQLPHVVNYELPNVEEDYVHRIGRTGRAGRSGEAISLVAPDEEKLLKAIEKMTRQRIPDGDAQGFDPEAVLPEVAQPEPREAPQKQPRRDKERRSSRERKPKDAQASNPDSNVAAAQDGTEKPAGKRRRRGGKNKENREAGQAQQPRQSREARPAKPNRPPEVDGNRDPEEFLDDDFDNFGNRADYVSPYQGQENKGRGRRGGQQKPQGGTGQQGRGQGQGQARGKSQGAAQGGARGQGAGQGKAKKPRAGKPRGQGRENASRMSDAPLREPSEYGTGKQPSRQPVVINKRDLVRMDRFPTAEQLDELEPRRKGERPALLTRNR
UniProt Q9HWC8: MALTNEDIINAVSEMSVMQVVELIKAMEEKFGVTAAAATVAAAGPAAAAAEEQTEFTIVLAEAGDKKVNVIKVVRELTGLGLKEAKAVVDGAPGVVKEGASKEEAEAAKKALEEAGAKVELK

Key:
Assay in all cases: affinity purification with mass spectrometry; Strep-tagged RNase E bait from PAO1 lysates on MagStrep Strep-Tactin XT beads, 20 mM Tris (pH 10), 250 mM NaCl, 10% glycerol, 4°C; LC-MS/MS of the beads; duplicates; untagged PAO1 WT as control
[1] = target: RNase E^1-1057-Strep (P. aeruginosa PAO1) (UniProt Q9HZM8)
[2] = target: RNase E^1-529-Strep (P. aeruginosa PAO1) (UniProt Q9HZM8)
[3] = target: RNase E^1-1057-Strep (P. aeruginosa PAO1) (UniProt Q9HZM8); remark: listed apart in the source
[4] = target: RNase E^1-529-Strep (P. aeruginosa PAO1) (UniProt Q9HZM8); remark: listed apart in the source

Molecule	binding [1]	binding [2]	binding [3]	binding [4]
RpoC (from UniProt Q9HWC9 1-1399)	binds	–	–	–
RpoB (from UniProt Q51561 1-1357)	binds	–	–	–
GdhB (from UniProt Q9HZE0 1-1620)	binds	no binding	–	–
RhlE2 RNA helicase (from UniProt Q9I689) (enzyme)	binds	binds	–	–
RplL (from UniProt Q9HWC8 1-122)	binds	–	–	–
T25-PNPase (enzyme, P. aeruginosa, UniProt Q9HV59 1-701, looked up, Polyribonucleotide phosphorylase (PNPase), P. aeruginosa, pnp; source: bacterial two-hybrid fusion (pKT25), E. coli BTH101) MNPVTKQFQFGQSTVTLETGRIARQATGAVLVTMDDVSVLVTVVGAKSPAEGRDFFPLSVHYQEKTYAAGRIPGGFFKREGRPSEKETLTSRLIDRPIRPLFPEGFMNEVQVVCTVVSTNKKSDPDIAAMIGTSAALAISGIPFAGPIGAARVGFHPEIGYILNPTYEQLQSSSLDMVVAGTEDAVLMVESEADELTEDQMLGAVLFAHDEFQAVIRAVKELAAEAGKPAWDWKAPAENTVLVNAIKAELGEAISQAYTITIKQDRYNRLGELRDQAVALFAGEEEGKFPASEVKDVFGLLEYRTVRENIVNGKPRIDGRDTRTVRPLRIEVGVLGKTHGSALFTRGETQALVVATLGTARDAQLLDTLEGERKDAFMLHYNFPPFSVGECGRMGSPGRREIGHGRLARRGVAAMLPTQDEFPYTIRVVSEITESNGSSSMASVCGASLALMDAGVPVKAPVAGIAMGLVKEGEKFAVLTDILGDEDHLGDMDFKVAGTDKGVTALQMDIKINGITEEIMEIALGQALEARLNILGQMNQVIAKPRAELSENAPTMLQMKIDSDKIRDVIGKGGATIRGICEETKASIDIEDDGSVKIYGETKEAAEAAKLRVLAITAEAEIGKIYVGKVERIVDFGAFVNILPGKDGLVHISQISDKRIDKVTDVLQEGQEVKVLVLDVDNRGRIKLSIKDVAAAEASGV	–	–	binds	no binding
ArcB (enzyme, UniProt P08308 1-336) MAFNMHNRNLLSLMHHSTRELRYLLDLSRDLKRAKYTGTEQQHLKRKNIALIFEKTSTRTRCAFEVAAYDQGANVTYIDPNSSQIGHKESMKDTARVLGRMYDAIEYRGFKQEIVEELAKFAGVPVFNGLTDEYHPTQMLADVLTMREHSDKPLHDISYAYLGDARNNMGNSLLLIGAKLGMDVRIAAPKALWPHDEFVAQCKKFAEESGAKLTLTEDPKEAVKGVDFVHTDVWVSMGEPVEAWGERIKELLPYQVNMEIMKATGNPRAKFMHCLPAFHNSETKVGKQIAEQYPNLANGIEVTEDVFESPYNIAFEQAENRMHTIKAILVSTLADI	–	–	–	no binding
